For this assay, the system named is HCoV-229E. Also noted: species or system Huh-7; HTS, protection from HCoV-229E induced cell death, luminescent cell viability (CellCounting-Lite 2.0), inhibition rate. The following applies: 24 h post infection, 1 h compound pre-incubation, 10 µM, inhibitor.

From paper PMC12431657, “Discovery and mechanistic insights of dibenzoylmethane as a broad spectrum inhibitor of coronavirus” (PLOS Pathogens, 2025) come the findings set out here.

The structures appear in SMILES notation. Where a name gives a salt, the structure may show the parent alone. Read-outs that look alike come from different tables or passages of the source. The campaign covered roughly 3,300 compounds. About 95 (3%) showed an effect of 50% or more. The list shows a part of the results. Square brackets hold non-standard residues; d marks the D form. Peptide text beside a SMILES is read from it. * marks the point of attachment. Sta = CC(C)C[C@H](N)[C@@H](O)CC(=O)O; Isovaleryl = CC(C)CC(=O)*

As to `C[C@H]1O[C@H](O[C@@H]2[C@@H](O)[C@H](OCCc3ccc(O)c(O)c3)O[C@H](CO[C@H]3OCC(O)(CO)[C@@H]3O)[C@H]2OC(=O)/C=C/c2ccc(O)c(O)c2)[C@@H](O)[C@@H](O)[C@@H]1O` (stereo partly shown) [Forsythoside B], the “229E Inhibition rate” value was 14.6%.

On to `CCC(O)C(=O)O` (stereo not shown) [Sodium 2-hydroxybutanoate], for which the “229E Inhibition rate” value was 9.6%.

Consider `CCCCC/C=C\C/C=C\CCCCCCCC(=O)OCC(O)CO` (stereo not shown) [1-Linoleoyl Glycerol], for which the “229E Inhibition rate” value amounted to 49.8%.

With `CCCCCCCC(=O)OC` [Methyl octanoate], the “229E Inhibition rate” value turned out to be 0%.

For `CC(C)[C@H](N)C(=O)NCCC(=O)O` [H-Val-Ala-OH], the “229E Inhibition rate” value is listed as 25.7%.

On to `Cc1c(C)c2c(c(C)c1O)CC[C@@](C)(CCC[C@H](C)CCC[C@H](C)CCCC(C)C)O2` (racemic) [DL-alpha-Tocopherol], for which the “229E Inhibition rate” value is 11.1%.

As to `COc1ccc2ccc(=O)oc2c1C[C@@H]1OC1(C)C` [Meranzin], the “229E Inhibition rate” value stood at 41.1%.

As to `CC[C@H](C)C(=O)O[C@H]1C[C@H](O)C=C2C=C[C@H](C)[C@H](CC[C@@H](O)C[C@@H](O)CC(=O)O)[C@H]21` [Pravastatin (sodium)], the “229E Inhibition rate” value stood at 14.3%.

As for `CNc1ccccc1C(=O)OC` [Methyl N-methylanthranilate], the “229E Inhibition rate” value amounted to 29.4%.

As to `COc1c2ccoc2c(O)c2oc(=O)ccc12` [8-Hydroxybergapten], the “229E Inhibition rate” value is listed as 7.9%.

Turning to `OCc1ccc(O)cc1` [4-Hydroxybenzyl alcohol], the “229E Inhibition rate” value is 26.1%.

With `COc1cc2c(c(OC)c1OC)-c1c(cc3c(c1O)OCO3)C[C@H](C)[C@@H](C)C2` [Gomisin M2], the “229E Inhibition rate” value was 19.3%.

`OCc1cccc(O)c1` [KSD 2405]: the “229E Inhibition rate” value stood at 12.6%.

As for `CC(C)[C@H](NC(=O)[C@H](CC(=O)O)NC(=O)[C@H](CCCCN)NC(=O)[C@@H](N)CCCN=C(N)N)C(=O)N[C@@H](Cc1ccc(O)cc1)C(=O)O` [Thymopentin (acetate)] (H-RKDVY-OH), under “229E Inhibition rate, 24 h”, the “229E Inhibition rate” value is listed as 11.4%.

With `CC(=O)N[C@H]1[C@H]([C@H](O)[C@H](O)CO)OC(O)(C(=O)O)C[C@@H]1O` (stereo partly shown) [N-Acetylneuraminic acid], the “229E Inhibition rate” value was found to be 13.4%.

Turning to `Nc1ncnc2c1ncn2[C@@H]1O[C@H](CO)C[C@H]1O` [Cordycepin], the “229E Inhibition rate” value was found to be 15.3%.

On to `CC[C@H](C)[C@@H]1NC(=O)[C@@H]2CCCN2C(=O)[C@@H]2CCCN2C(=O)[C@@H]2CCCN2C(=O)[C@H](CC(C)C)NC(=O)CNC(=O)CNC(=O)[C@H](Cc2ccccc2)NC1=O` [Heterophyllin B] (cyclo(FGGLPPPI)), for which the “229E Inhibition rate” value is recorded as 12.9%.

For the molecule `CC(C)CC(=O)N[C@H](C(=O)N[C@H](C(=O)N[C@@H](CC(C)C)[C@@H](O)CC(=O)N[C@@H](C)C(=O)N[C@@H](CC(C)C)[C@@H](O)CC(=O)O)C(C)C)C(C)C` [Pepstatin] (Isovaleryl-VV[Sta]A[Sta]-OH), the “229E Inhibition rate” value (229E Inhibition rate, 24 h) is reported as 8.2%.

For the molecule `CCCCCCCCCCCCCCCC(=O)OC[C@H](CO)OC(=O)CCCCCCCCCCCCCCC` [1,2-Dipalmitoyl-sn-glycerol], the “229E Inhibition rate” value is 6%.

On to `N[C@@H](CCC(=O)NCC(=O)O)C(=O)O` [γ-Glu-Gly], for which the “229E Inhibition rate” value is given as 27.8%.

Take `CCCCCCCC/C=C\CCCCCCCC(=O)O` [Sodium oleate]: the “229E Inhibition rate” value (229E Inhibition rate, 24 h) came out at 10%.

As for `CC[C@@]1(O)C(=O)OCc2c1cc1n(c2=O)Cc2cc3c(CN(C)C)c(O)ccc3nc2-1` [Topotecan (Hydrochloride)], the “229E Inhibition rate” value is 8.7%.

As for `Oc1cc(O)cc(/C=C/c2ccc(O)c(O)c2)c1` [Piceatannol], the “229E Inhibition rate” value amounted to 34.2%.

`O=C(O)/C=C(\CC(=O)O)C(=O)O` [trans-Aconitic acid]: the “229E Inhibition rate” value is recorded as 15.5%.

As for `COc1cc(/C=C/CO)ccc1O[C@@H]1O[C@H](CO)[C@@H](O)[C@H](O)[C@H]1O` [Coniferin], the “229E Inhibition rate” value came to 8.4%.

Consider `C=CC(C)(O)CCC=C(C)C` (stereo not shown) [Linalool], for which the “229E Inhibition rate” value is reported as 20.5%.

Regarding `COc1cc2c(cc1OC)-c1cc3ccc(OC)c(OC)c3c[n+]1CC2` [Palmatine (chloride)], the “229E Inhibition rate” value (229E Inhibition rate, 24 h) turned out to be 29%.

`NC[C@H]1O[C@H](O[C@H]2[C@H](O)[C@@H](O[C@H]3O[C@H](CO)[C@@H](O)[C@H](N)[C@H]3O)[C@H](N)C[C@@H]2N)[C@H](N)[C@@H](O)[C@@H]1O` [Bekanamycin]: the “229E Inhibition rate” value turned out to be 9.2%.

`Cc1ccc(C(C)C)c(O)c1` [Thymol]: the “229E Inhibition rate” value is 13.1%.

For the molecule `CC/C=C\C/C=C\C/C=C\CCCCCCCC(=O)O` [α-Linolenic acid], the “229E Inhibition rate” value is on record as 15%.

Take `C[C@@H]1O[C@@H](O[C@H]2C(=O)c3c(O)cc(O)cc3O[C@@H]2c2ccc(O)c(O)c2)[C@H](O)[C@H](O)[C@H]1O` [Astilbin]: the “229E Inhibition rate” value is listed as 15.2%.

As for `O=c1cccc2n1C[C@@H]1CNC[C@H]2C1` [Cytisinicline], the “229E Inhibition rate” value worked out at 0%.

On to `C/C=C/SC[C@H](N)C(=O)O` [S-1-Propenyl-L-cysteine], for which the “229E Inhibition rate” value is 13%.

Consider `COc1ccc2c(c1OC)CN1CCc3cc4c(cc3C1=C2)OCO4` [Dihydroberberine], for which the “229E Inhibition rate” value was found to be 30%.

For the molecule `O=c1oc2ccccc2cc1O` [3-Hydroxycoumarin], the “229E Inhibition rate” value is 12.9%.

As for `Nc1[nH]c(=O)nc2c1ncn2[C@@H]1O[C@H](CO)[C@@H](O)[C@H]1O` [Crotonoside], the “229E Inhibition rate” value is given as 10.9%.

For `C=CCc1ccc(OC)cc1` [Estragole], the “229E Inhibition rate” value is 21.1%.

As to `CC(=O)c1ccc(C)cc1C` [2',4'-Dimethylacetophenone], the “229E Inhibition rate” value is given as 31.8%.

With `O=c1c(O[C@@H]2O[C@H](CO[C@@H]3O[C@H](CO)[C@@H](O)[C@H](O)[C@H]3O)[C@@H](O)[C@H](O)[C@H]2O)c(-c2ccc(O)c(O)c2)oc2cc(O)cc(O)c12` [Quercetin 3-gentiobioside], the “229E Inhibition rate” value amounted to 6.9%.

Turning to `O=c1ccn([C@@H]2O[C@H](COP(=O)(O)O)[C@@H](O)[C@H]2O)c(=O)[nH]1` [Uridine 5'-monophosphate], where the note is “229E Inhibition rate, 24 h”, the “229E Inhibition rate” value is recorded as 18.2%.

As for `COc1ccc(CCc2cc(OC)c(OC)c(OC)c2)cc1O` [Erianin], the “229E Inhibition rate” value is listed as 26%.

Turning to `CN1CCc2cc3c(cc2C(=O)Cc2cc4c(cc2C1)OCO4)OCO3` [Protopine], the “229E Inhibition rate” value turned out to be 13.8%.

`C[C@@H]1O[C@@H](O[C@H]2[C@H](Oc3cc(O)c4c(c3)O[C@H](c3ccc(O)cc3)CC4=O)O[C@H](CO)[C@@H](O)[C@@H]2O)[C@H](O)[C@H](O)[C@H]1O` [Naringin]: the “229E Inhibition rate” value came out at 10.8%.
